According to patent US20210138090A1 (FLUOGUIDE A/S, priority 2014, published 2021):
Square brackets hold non-standard residues; d marks the D form. Peptide text beside a SMILES is read from it. * marks the point of attachment. IRDye800CW = CC1(C)C(/C=C/C2=C(Oc3ccc(S(=O)(=O)O)cc3)C(=C/C=C3/N(CCCCS(=O)(=O)O)c4ccc(S(=O)(=O)O)cc4C3(C)C)/CCC2)=[N+](CCCCCC(=O)*)c2ccc(S(=O)(=O)[O-])cc21; Cha = N[C@@H](CC1CCCCC1)C(=O)O; AEEA = NCCOCCOCC(=O)O

How the values were obtained:
[1] = general procedure: Fmoc solid-phase peptide synthesis; Fmoc Ser(t-Bu) TentaGel S PHB 0.25 mmol/g; HBTU/HOAt/DIEA; HATU/HOAt/DIEA for the dye; settings: whole synthesis
[2] = test system: orthotopic GBM (U-87 MG-luc2 cells); test: dynamic NIR imaging of orthotopic GBM on cross sectioned brain (Fluobeam); format: in vivo, mice; settings: 6 nmol
Protocol: All experimental procedures in animals were carried out in accordance with the approval by The Animal Experiments Inspectorate, Denmark. 7-10-week-old female nude mice (strain: Rj:NMRI-Foxn1nu/nu, JANVIER LABS, France) were orthotopically xenografted with U-87 MG-luc2 cells.
The orthotopic GBM tumor model was established by inoculation of 500.000 cells in 10 μL ice cold PBS in the right hemisphere (1.5 mm lateral and 0.5 mm posterior to the bregma at 2 mm depth) using a stereotaxic frame (KOPF INSTRUMENTS, Tujunga, Calif., USA) with the automated microinjection pump UMP3 (WPI, Sarasota, Fla., USA). The cells were injected over 5 min with the syringe kept in place for further 3 min before retraction. Tumor growth was subsequently monitored on MRI with the BioSpec 7T (Bruker, Billerica, Mass., USA) with axial and coronal T2-wighted sequences. When the tumor size reached 2-17 mm^3, the animals were included in the fluorescence imaging protocol.
All image acquisition was performed with the Fluobeam system with (Fluosoft version: 2.2.1) (Fluoptics, Grenoble, France). To characterize the in vivo biodistribution and tumor imaging properties, IRDye800-AE344 was administered through tail vein injection into all the GBM bearing mice (n=35) at four different doses: 1 nmol, 3 nmol, 6 nmol, and 12 nmol. Two mice were sacrificed for each time point and the brain was removed and cross sectioned through the tumor for imaging. […] Accordingly, image acquisition was performed at following time points after injection: • 1 nmol: 0.5 h, 1 h, and 2 h • 3 nmol: 1 h, 2 h, 3 h, and 5 h • 6 nmol: 1 h, 3 h, 6 h, and 12 h • 12 nmol: 1 h, 3 h, 5 h, 10 h, 15 h, and 24 h
Images were analyzed and processed in ImageJ 1.52a, NIH, USA. Signal measurements were performed on the raw images generated by the Fluoptics system. Tumor signal was measured as a mean fluorescence intensity of the whole tumor and background signal was measured as the mean of a representative area with no tumor on the contralateral hemisphere. […]

[3] = UHPLC-MS, two analytical methods (C4 and C18 columns), scale of the general procedure 0.1 mmol

Row | Compound | crude LC-MS purity [1, 3] | final LC-MS purity [1, 3] | isolated mass ([1]; scale 0.1 mmol) | background MFI ([2]; 1 h) | background MFI ([2]; 3 h) | decrease in background MFI ([2]; from 1 h to 3 h)
1 | IRDye800-Glu-Glu-O2Oc-O2Oc-Asp-Cha-Phe-D-ser-D-arg-Tyr-Leu-Trp-Ser-OH | above 80% | 98% | 2 mg |  |  | 
2 | CC(C)C[C@H](NC(=O)[C@H](Cc1ccc(O)cc1)NC(=O)[C@@H](CCCNC(=N)N)NC(=O)[C@@H](CO)NC(=O)[C@H](Cc1ccccc1)NC(=O)[C@H](CC1CCCCC1)NC(=O)[C@H](CC(=O)O)NC(=O)COCCOCCNC(=O)COCCOCCNC(=O)[C@H](CCC(=O)O)NC(=O)[C@H](CCC(=O)O)NC(=O)CCCCC[N+]1=C(/C=C/C2=C(Oc3ccc(S(=O)(=O)O)cc3)C(=C/C=C3/N(CCCCS(=O)(=O)O)c4ccc(S(=O)(=O)O)cc4C3(C)C)/CCC2)C(C)(C)c2cc(S(=O)(=O)[O-])ccc21)C(=O)N[C@@H](Cc1c[nH]c2ccccc12)C(=O)N[C@@H](CO)C(=O)O [IRDye800CW-AE344, IRDye800-Glu-Glu-O2Oc-O2Oc-Asp-Cha-Phe-D-ser-D-arg-Tyr-Leu-Trp-Ser-OH] (IRDye800CW-EE[AEEA][AEEA]D[Cha]F[dS][dR]YLWS-OH) |  |  |  | 24 a.u. | 11 a.u. | 54%
